Measurements from US10464977B2 (University of Maryland, Baltimore, priority 2016, dated 2019).
Part of at least one peptide drawing is inferred or uncertain, most often the ends. Some compounds share one wording; it may come from a single statement. Residues, ends and D or L forms follow the SMILES beside them.

Experiments:
[1] = system: C. albicans; type: cell-based; conditions: for in vitro antifungal activity compared to Hst-5 (in words): FIG. 5C
[2] = system: C. albicans; assay: Mouse model of oral candidiasis, topical peptide gel treatment; type: in vivo, mice; conditions: 3 daily topical gel applications (100 μl), euthanized 4 days post-infection

Structure (SMILES)	in vitro antifungal activity compared to Hst-5 (in words) [1]	antifungal activity at 50 μM peptide compared to Hst-5 ([1]; 50 μM peptide, 2.5×10^7 cells/mL)	average CFUs recovered from tongue [2]
CC(C)C[C@H](NC(=O)[C@H](Cc1c[nH]cn1)NC(=O)[C@H](Cc1ccccc1)NC(=O)[C@H](CCCCN)NC(=O)[C@H](CCCNC(=N)N)NC(=O)[C@H](CCCCN)NC(=O)[C@H](Cc1ccc(O)cc1)NC(=O)CNC(=O)[C@H](Cc1c[nH]cn1)NC(=O)[C@H](Cc1c[nH]cn1)NC(=O)[C@H](CCCNC(=N)N)NC(=O)[C@H](CCCCN)NC(=O)[C@H](C)NC(=O)[C@H](Cc1c[nH]cn1)NC(=O)[C@H](CO)NC(=O)[C@@H](N)CC(=O)O)C(=O)N[C@@H](CCCCN)C(=O)N[C@@H](Cc1c[nH]cn1)C(=O)N[C@@H](Cc1c[nH]cn1)C(=O)N[C@@H](CO)C(=O)N[C@@H](Cc1c[nH]cn1)C(=O)N[C@@H](CCCNC(=N)N)C(=O)NCC(=O)N[C@@H](Cc1ccc(O)cc1)C(=O)O [Peptide E16L] (H-DSHAKRHHGYKRKFHLKHHSHRGY-OH; N-terminus and C-terminus assumed)	improved in vitro antifungal activity against Candida albicans compared to Hst-5		
C[C@H](NC(=O)[C@H](Cc1c[nH]cn1)NC(=O)[C@H](CO)NC(=O)[C@@H](N)CC(=O)O)C(=O)N[C@@H](CCCCN)C(=O)N[C@@H](CCCNC(=N)N)C(=O)N[C@@H](Cc1c[nH]cn1)C(=O)N[C@@H](Cc1c[nH]cn1)C(=O)NCC(=O)N[C@@H](Cc1ccc(O)cc1)C(=O)N[C@@H](CCCNC(=N)N)C(=O)N[C@@H](CCCNC(=N)N)C(=O)N[C@@H](CCCCN)C(=O)N[C@@H](Cc1ccccc1)C(=O)N[C@@H](Cc1c[nH]cn1)C(=O)N[C@@H](CCC(=O)O)C(=O)N[C@@H](CCCCN)C(=O)N[C@@H](Cc1c[nH]cn1)C(=O)N[C@@H](Cc1c[nH]cn1)C(=O)N[C@@H](CO)C(=O)N[C@@H](Cc1c[nH]cn1)C(=O)N[C@@H](CCCNC(=N)N)C(=O)NCC(=O)N[C@@H](Cc1ccc(O)cc1)C(=O)O [Peptide K11R] (H-DSHAKRHHGYRRKFHEKHHSHRGY-OH; N-terminus and C-terminus assumed)		significantly higher antifungal activity than Hst-5	2×10^5 cells/per gram tissue
C[C@H](NC(=O)[C@H](Cc1c[nH]cn1)NC(=O)[C@H](CO)NC(=O)[C@@H](N)CC(=O)O)C(=O)N[C@@H](CCCCN)C(=O)N[C@@H](CCCNC(=N)N)C(=O)N[C@@H](Cc1c[nH]cn1)C(=O)N[C@@H](Cc1c[nH]cn1)C(=O)NCC(=O)N[C@@H](Cc1ccc(O)cc1)C(=O)N[C@@H](CCCNC(=N)N)C(=O)N[C@@H](CCCNC(=N)N)C(=O)N[C@@H](CCCCN)C(=O)N[C@@H](Cc1ccccc1)C(=O)N[C@@H](Cc1c[nH]cn1)C(=O)N[C@@H](CCC(=O)O)C(=O)N[C@@H](CCCNC(=N)N)C(=O)N[C@@H](Cc1c[nH]cn1)C(=O)N[C@@H](Cc1c[nH]cn1)C(=O)N[C@@H](CO)C(=O)N[C@@H](Cc1c[nH]cn1)C(=O)N[C@@H](CCCNC(=N)N)C(=O)NCC(=O)N[C@@H](Cc1ccc(O)cc1)C(=O)O [Peptide K11R-K17R] (H-DSHAKRHHGYRRKFHERHHSHRGY-OH; N-terminus and C-terminus assumed)	improved in vitro antifungal activity against Candida albicans compared to Hst-5		
CC(C)C[C@H](NC(=O)[C@H](CCC(=O)O)NC(=O)[C@H](Cc1c[nH]cn1)NC(=O)[C@H](Cc1ccccc1)NC(=O)[C@H](CCCCN)NC(=O)[C@H](CCCNC(=N)N)NC(=O)[C@H](CCCCN)NC(=O)[C@H](Cc1ccc(O)cc1)NC(=O)CNC(=O)[C@H](Cc1c[nH]cn1)NC(=O)[C@H](Cc1c[nH]cn1)NC(=O)[C@H](CCCNC(=N)N)NC(=O)[C@H](CCCCN)NC(=O)[C@H](C)NC(=O)[C@H](Cc1c[nH]cn1)NC(=O)[C@H](CO)NC(=O)[C@@H](N)CC(=O)O)C(=O)N[C@@H](Cc1c[nH]cn1)C(=O)N[C@@H](Cc1c[nH]cn1)C(=O)N[C@@H](CO)C(=O)N[C@@H](Cc1c[nH]cn1)C(=O)N[C@@H](CCCNC(=N)N)C(=O)NCC(=O)N[C@@H](Cc1ccc(O)cc1)C(=O)O [Peptide K17L] (H-DSHAKRHHGYKRKFHELHHSHRGY-OH; N-terminus and C-terminus assumed)			9×10^4 cells/per gram tissue
C[C@H](NC(=O)[C@H](Cc1c[nH]cn1)NC(=O)[C@H](CO)NC(=O)[C@@H](N)CC(=O)O)C(=O)N[C@@H](CCCCN)C(=O)N[C@@H](CCCNC(=N)N)C(=O)N[C@@H](Cc1c[nH]cn1)C(=O)N[C@@H](Cc1c[nH]cn1)C(=O)NCC(=O)N[C@@H](Cc1ccc(O)cc1)C(=O)N[C@@H](CCCCN)C(=O)N[C@@H](CCCNC(=N)N)C(=O)N[C@@H](CCCCN)C(=O)N[C@@H](Cc1ccccc1)C(=O)N[C@@H](Cc1c[nH]cn1)C(=O)N[C@@H](CCCNC(=N)N)C(=O)N[C@@H](CCCCN)C(=O)N[C@@H](Cc1c[nH]cn1)C(=O)N[C@@H](Cc1c[nH]cn1)C(=O)N[C@@H](CO)C(=O)N[C@@H](Cc1c[nH]cn1)C(=O)N[C@@H](CCCNC(=N)N)C(=O)NCC(=O)N[C@@H](Cc1ccc(O)cc1)C(=O)O [Peptide E16R] (H-DSHAKRHHGYKRKFHRKHHSHRGY-OH; N-terminus and C-terminus assumed)	improved in vitro antifungal activity against Candida albicans compared to Hst-5		
